Laboratory results: PubChem BioAssay AID652054 (National Center for Advancing Translational Sciences (NCATS), 2013)
The whole screen tested about 360,000 compounds, of which about 9,100 (2.5%) were called active. This list was built around the results that the source calls inconclusive (neither active nor inactive); the mix of calls is not that of the screen. No stated cut-off is given here; in the data, active means max response below about -50%; inconclusive means no clear call, values can overlap the other calls; inactive means above that.

Chains of the proteins cited; added tags and fusions are not shown.
UniProt P35462, whole entry, looked up: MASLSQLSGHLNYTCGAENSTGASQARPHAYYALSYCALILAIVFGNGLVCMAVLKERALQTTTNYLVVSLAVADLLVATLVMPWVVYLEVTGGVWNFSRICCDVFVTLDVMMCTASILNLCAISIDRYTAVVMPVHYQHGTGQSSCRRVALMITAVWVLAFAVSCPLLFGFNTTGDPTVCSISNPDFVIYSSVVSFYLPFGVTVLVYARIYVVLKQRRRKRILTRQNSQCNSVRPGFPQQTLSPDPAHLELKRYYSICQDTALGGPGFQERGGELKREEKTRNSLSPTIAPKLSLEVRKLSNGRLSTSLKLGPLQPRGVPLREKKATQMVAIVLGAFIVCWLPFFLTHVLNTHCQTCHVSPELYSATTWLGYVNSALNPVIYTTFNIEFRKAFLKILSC

These molecules were tested against D(3) dopamine receptor (Homo sapiens) (UniProt P35462) (assay: qHTS of D3 Dopamine Receptor Antagonist: qHTS). Conditions: D3R cells, DiscoveRx beta-arrestin luminescence, antagonist mode; hits give low values.
Summary of the method: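 Cells expressing the human receptor were seeded at 1500 cells/well, incubated overnight at 37 degrees C in 5% CO2, then exposed to library compounds with dopamine controls for 90 minutes at 37 degrees C before luminescent detection.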
On the % scale 0 is the no-effect control and ±100 the full control effect.

SMILES | max response, negative = inhibition
O=S(Cc1ccc(Br)cc1)Cc1nnc(SCc2c(Cl)cccc2Cl)n1-c1ccccc1 (stereo unspecified) | inactive: 2.07%
Cc1ccc(S(=O)(=O)N(CC(=O)N/N=C/c2ccco2)c2cc(Cl)cc(Cl)c2)cc1 | inconclusive: -30.8%
C=CCC[C@H](Cc1ccc(F)cc1)C(=O)OC[C@H](C)NC(=O)[C@H](CC=C)CC(=O)NCCO | inactive: 0%
COc1cc(NC(=O)c2cccnc2SC)cc(OC)c1 | inconclusive: -31.8%
O=[N+]([O-])c1ccccc1S(=O)(=O)Oc1ccc(C(=S)N2CCOCC2)cc1 | inconclusive: -33.1%
COc1ccc(CCNC2CCC(c3ccccc3)CC2)cc1 (stereo unspecified) | active: -64.6%
CC(C)N1C/C(=C/c2cccnc2)C(=O)/C(=C/c2cccnc2)C1 | inconclusive: -32.1%
S=c1[nH]nc(COc2ccccc2)n1/N=C/C=C/c1ccco1 | inconclusive: -33.8%
CC1(C)Cc2c(sc3c2c2ncnn2c2nnc(SCC(=O)NCc4ccco4)n32)CO1 | inconclusive: -41.1%
Cc1ccccc1NC(=O)CN1C(=O)COc2ccc(S(=O)(=O)N3CCCC3)cc21 | inactive: -3.15%
COC(=O)C(NC(=O)c1ccc(F)cc1)(Nc1nc(C)cs1)C(F)(F)F (stereo unspecified) | inconclusive: -30.5%
Cc1ccccc1NC(=O)c1cc([N+](=O)[O-])ccc1NCCN1C(=O)CCC1=O | inconclusive: -43.8%
CCc1cc(C(=O)c2ccc(Br)cc2)c(NC(=O)CN(CC)CC)s1 | active: -61.7%
CNC(=O)[C@@]1(Cc2ccccc2)C=C[C@@H](C)N1C(=O)OC | inconclusive: -30%
Cc1ccsc1-c1nc(CN2C[C@@H](C)O[C@@H](C)C2)c(C)o1 | inconclusive: -30.3%
Cc1ccc([N+](=O)[O-])cc1-c1ccc2cccc(C)c2n1 | inconclusive: -30.6%
CCN(C/C=C/c1ccccc1OC)Cc1ccccc1 | active: -81.9%
COc1ccc(N2C(=O)CC(NNC(=O)c3ccco3)C2=O)cc1 (stereo unspecified) | inconclusive: -41.1%
OC(CSc1ccccc1)CN1CCN(c2ccc(Cl)cc2)CC1 (stereo unspecified) | active: -85.5%
O=C(Cn1c(C(=O)O)cc2ccccc21)c1ccccc1 | inconclusive: -31.7%
O=C(Oc1ccc(=O)n(-c2ccccc2)n1)c1ccccc1 | inconclusive: -40.2%
COc1ccc(CCN(C)C2CCCN(S(=O)(=O)c3ccc(C)cc3)C2)cc1OC (stereo unspecified) | inactive: -7.45%
CCOC(=O)Nc1nc(-c2ccccc2)c(C(=O)c2ccc(Cl)cc2)s1 | inconclusive: -38.7%

3 compounds out of the list, arranged by molar mass, ascending.
SMILES | max response, negative = inhibition
Cc1ccc([N+](=O)[O-])cc1-c1ccc2cccc(C)c2n1 | inconclusive: -30.6%
CC(C)N1C/C(=C/c2cccnc2)C(=O)/C(=C/c2cccnc2)C1 | inconclusive: -32.1%
Cc1ccc(S(=O)(=O)N(CC(=O)N/N=C/c2ccco2)c2cc(Cl)cc(Cl)c2)cc1 | inconclusive: -30.8%

Among those listed so far, these have fluorine:
SMILES | max response, negative = inhibition
C=CCC[C@H](Cc1ccc(F)cc1)C(=O)OC[C@H](C)NC(=O)[C@H](CC=C)CC(=O)NCCO | inactive: 0%
COC(=O)C(NC(=O)c1ccc(F)cc1)(Nc1nc(C)cs1)C(F)(F)F (stereo unspecified) | inconclusive: -30.5%

Next structures follow:

SMILES | max response, negative = inhibition
O=C(CNc1ccccc1)N/N=C/c1cc([N+](=O)[O-])ccc1N1CCCC1 | inconclusive: -32.2%
OC(COc1ccc2c(c1)OCO2)CN1CCc2ccccc2C1 (stereo unspecified) | active: -78.1%
CCCS(=O)(=O)NC(=O)C1(C)CCCN(C(=O)COCc2ccccc2)C1 (stereo unspecified) | inconclusive: -39.6%
COC(=O)c1c(NC(NC(=O)c2ccccc2)(C(F)(F)F)C(F)(F)F)sc2c1CCN(C)C2 | inconclusive: -36.7%
Cc1ccccc1CN1CCN(S(C)(=O)=O)CC1 | inconclusive: -46.4%
CCOc1ccc(C(=O)NCC2OCCc3ccccc32)cc1 (stereo unspecified) | inconclusive: -35.6%
Cc1ccc(NC(=S)N(CCCN2CCCC(C)C2)Cc2ccco2)cc1C (stereo unspecified) | active: -91.9%
Cc1ccc(C)n1NC(=O)c1ccccc1Cl | inactive: 12.6%
O=C1C(Sc2ccccc2)=C[C@@]2(O)CC[C@@H](O)[C@]1(Sc1ccccc1)[C@H]2O | inconclusive: -47.6%
CCc1ccc(NC(=O)C[n+]2cc(-c3ccc(C)cc3)n3c2CCC3)cc1 | inconclusive: -38.9%
CC(C)(C)C1CCc2c(sc(NC(=O)c3ccco3)c2C(N)=O)C1 (stereo unspecified) | inactive: 8.39%
Cc1ccc(C(=O)CSc2ccccn2)cc1 | inconclusive: -36%
CC(=O)c1ccc(NC(=O)Nc2ccc([N+](=O)[O-])cc2C)cc1 | inactive: -18.2%
O=C(CCN(CCO)Cc1ccccc1)Nc1ccc(Br)cc1 | inconclusive: -42.9%
CC(=O)c1cccc2c(O)c(C3=Nc4ccccc4C3=O)[nH]c12 | inconclusive: -47.8%
O=C(Nc1ccccn1)c1cccs1 | inconclusive: -46%
CN(C)c1ccc(N/C=C/C(=O)c2ccco2)cc1 | inconclusive: -47.7%
Cc1nnc(N2CCN(Cc3ccccc3)CC2)[nH]c1=O | active: -53.5%
C[n+]1c2n(c3ccccc31)N=C(c1ccc(-c3ccccc3)cc1)CS2 | inactive: 3.88%
NNC(=O)c1cc2ccccc2[nH]1 | active: -52%
Cc1ccc(OCc2nnc(SCCN3CCOCC3)n2C)cc1 | inconclusive: -38.3%
Cc1ccc(S(=O)(=O)N=Nc2c(O)[nH]c3ccccc23)cc1 | inconclusive: -36.8%
COc1ccc2c(COC(=O)c3cccc(S(=O)(=O)NCC(C)C)c3)cc(=O)oc2c1 | inactive: 46.3%

SMILES | max response, negative = inhibition
Cc1ccc(C(NC(=O)C2CCN(CCOc3ccc(Cl)cc3)CC2)c2ccccn2)cc1 (stereo unspecified) | active: -94.5%
CC(O)CNCCCCOc1ccc(OCc2ccccc2)cc1 (stereo unspecified) | inactive: -4.05%
CN1/C(=C\C=C(/C#N)C(=O)Nc2ccc(Cl)cc2)C(C)(C)c2ccccc21 | inactive: 23.8%
S=C(c1ccccc1)N1CCCc2ccccc21 | inconclusive: -32.8%
CCOC(=O)C1(Cc2ccccc2C)CCCN(C(=O)CCc2cccnc2)C1 (stereo unspecified) | inactive: 13%
Cc1ccc(S(=O)(=O)N2c3cc(C)ccc3OCC2C(C)(C)C)cc1 (stereo unspecified) | inconclusive: -43.1%
O=C(/C=C/c1ccccc1O)c1ccco1 | inactive: 0%
Cc1ccccc1C(=O)NC1CCN(Cc2nnnn2CCc2ccccc2)CC1 | inactive: -6.74%
O=C1/C(=C/c2ccc([N+](=O)[O-])cc2)C=C(c2ccccc2)N1c1ccc(O)cc1 | inconclusive: -30.5%
CC(C)Oc1cccc(C(=O)Nc2ccc(CN3CCOCC3)cc2)c1 | inconclusive: -38.1%
O=C(NC1CCN(Cc2ccccc2)CC1)c1ccccc1F | active: -72.3%
OC1(c2ccccc2)CCN(Cc2ccccc2)CC1 | active: -80.4%
Cc1ccccc1C(=O)NC(=S)Nc1ccc(Oc2ccc(Cl)cc2)cc1 | inconclusive: -44.3%
C=CCc1ccccc1OCC(O)CN1CCN(CCO)CC1 (stereo unspecified) | inconclusive: -33.7%
C=CCOc1ccc(/C=C/C(C)=N\O)cc1 | inconclusive: -33.6%
Oc1c(N=Nc2nn[nH]n2)ccc2ccccc12 | inactive: -5.3%
O=C(NC(NC(=S)Nc1c(Cl)cc(Cl)cc1Cl)C(Cl)(Cl)Cl)OCc1ccccc1 (stereo unspecified) | active: -76.1%
COc1cc(/C=N/NC(=O)CCC(=O)Nc2ccc(F)cc2)ccc1O | inconclusive: -49.5%
CC(OC(=O)c1cc(S(=O)(=O)Nc2ccc(F)cc2)ccc1Cl)C(=O)Nc1ccc2c(c1)OCCO2 (stereo unspecified) | inconclusive: -30.5%
CC(C)C(OC(=O)C1=Cc2ccccc2OC1)C(=O)NCC1CCCO1 (stereo unspecified) | inactive: 6.58%
CC(=O)Nc1ccc(S(=O)(=O)c2ccnc3cc(Cl)ccc23)cc1 | inconclusive: -47%
O=C(C=Cc1ccccc1)c1c[nH]c2ccccc2c1=O | inconclusive: -48.4%
CC(C)(O)c1[nH]c2cc(C(F)(F)F)ccc2c1C(C)(C)O | inconclusive: -31.7%

SMILES | max response, negative = inhibition
O=C(O)/C=C/c1cn(-c2ccccc2)nc1-c1cc2ccccc2o1 | inconclusive: -46.4%
O=C(NCc1ccco1)c1ccccc1NS(=O)(=O)c1ccc(Cl)s1 | inconclusive: -41%
O=C(c1cccc(C(F)(F)F)c1)C1CCCN(Cc2cccn2-c2ncccn2)C1 (stereo unspecified) | active: -53.7%
Cc1ccccc1/C=C/c1cc[n+](C)cc1 | inactive: 0.514%
COc1ccc(/C=N/NC(=O)c2ccncc2)cc1CN1CCN(c2ccc(F)cc2)CC1 | active: -55%
COc1ccc(CN2CCN(Cc3ccco3)CC2)cc1 | inconclusive: -34.6%
OCC1(Cc2cccc(Cl)c2)CCCN(Cc2cnn(-c3ccccc3)c2)C1 (stereo unspecified) | active: -61.9%
COc1ccc(OCCN2CCC(C(=O)NC(c3ccccc3)c3ccc4ccccc4n3)CC2)cc1 (stereo unspecified) | active: -102%
Fc1ccc(NC(=S)NNc2ncc(C(F)(F)F)cc2Cl)c(F)c1 | active: -74.8%
CCCCCOC(=O)c1ccc(OC(=O)c2cncc(Br)c2)cc1 | active: -73.9%
CN1OC[C@@H]2CN[C@H](c3cccc(-c4cc(Cl)cc(Cl)c4)c3)C[C@@H]21 | inconclusive: -30.2%
Cc1c(Cl)cccc1NC(=O)CCC(=O)NNC(=O)c1ccccc1 | inconclusive: -35.3%
CCOc1ccccc1NC(=O)COC(=O)c1ccc2ccccc2n1 | inactive: -9.68%
O=C(CCN1C(=O)C2C3C=CC(C4CC34)C2C1=O)Oc1cccc2cccnc12 (stereo unspecified) | active: -67.7%
N=c1c(C(=O)NCc2ccco2)cc2c(=O)n3ccccc3nc2n1Cc1ccc(Cl)cc1 | inconclusive: -32.3%
COc1cc(C(=O)OCCN2CCCCC2)ccc1O | active: -57.8%
CCN1/C(=C/c2cccc[n+]2C)Sc2ccc(OC)cc21 | inactive: -29.2%
Cc1cc(C)n(-c2cccc(CN3CCC(CO)(Cc4ccccc4)CC3)c2)n1 | inconclusive: -37.5%
C[C@H]1CCC(=O)N([C@H](CN=[N+]=[N-])Cc2ccccc2)CC1 | inconclusive: -35.1%
CCOC(=O)N1CCN(S(=O)(=O)N2CCCC(C(=O)NC(C)c3ccccc3)C2)CC1 (stereo unspecified) | inactive: -11.2%
COc1ccc(N(C(=O)C(C)C)S(=O)(=O)c2cccs2)cc1 | inconclusive: -33%
COc1ccc(Cl)cc1NC(=O)CN1CCN(Cc2ccccc2)CC1 | inconclusive: -36.1%
